In one assay the target is Flag-HDAC4 (human) (UniProt P56524). Description: co-IP; HEK293T cells transfected with the tagged proteins, lysed in IP lysis buffer with PMSF; supernatants incubated with anti-Flag beads at 4 °C; immunoblot (Fig. 8A also with Myc-HDAC4 or TSA). For orientation: A western blot detects proteins with antibodies after separation by electrophoresis.
In assay [1] the target is endogenous HDAC4 in THP-1 cells (human (endogenous in THP-1)) (UniProt P56524). In words: co-IP; endogenous proteins of THP-1 cells, immunoprecipitated with control or anti-HDAC4 antibodies; immunoblot.

By UniProt entry, the sequences of proteins in these tests, tags left out.
UniProt P56524: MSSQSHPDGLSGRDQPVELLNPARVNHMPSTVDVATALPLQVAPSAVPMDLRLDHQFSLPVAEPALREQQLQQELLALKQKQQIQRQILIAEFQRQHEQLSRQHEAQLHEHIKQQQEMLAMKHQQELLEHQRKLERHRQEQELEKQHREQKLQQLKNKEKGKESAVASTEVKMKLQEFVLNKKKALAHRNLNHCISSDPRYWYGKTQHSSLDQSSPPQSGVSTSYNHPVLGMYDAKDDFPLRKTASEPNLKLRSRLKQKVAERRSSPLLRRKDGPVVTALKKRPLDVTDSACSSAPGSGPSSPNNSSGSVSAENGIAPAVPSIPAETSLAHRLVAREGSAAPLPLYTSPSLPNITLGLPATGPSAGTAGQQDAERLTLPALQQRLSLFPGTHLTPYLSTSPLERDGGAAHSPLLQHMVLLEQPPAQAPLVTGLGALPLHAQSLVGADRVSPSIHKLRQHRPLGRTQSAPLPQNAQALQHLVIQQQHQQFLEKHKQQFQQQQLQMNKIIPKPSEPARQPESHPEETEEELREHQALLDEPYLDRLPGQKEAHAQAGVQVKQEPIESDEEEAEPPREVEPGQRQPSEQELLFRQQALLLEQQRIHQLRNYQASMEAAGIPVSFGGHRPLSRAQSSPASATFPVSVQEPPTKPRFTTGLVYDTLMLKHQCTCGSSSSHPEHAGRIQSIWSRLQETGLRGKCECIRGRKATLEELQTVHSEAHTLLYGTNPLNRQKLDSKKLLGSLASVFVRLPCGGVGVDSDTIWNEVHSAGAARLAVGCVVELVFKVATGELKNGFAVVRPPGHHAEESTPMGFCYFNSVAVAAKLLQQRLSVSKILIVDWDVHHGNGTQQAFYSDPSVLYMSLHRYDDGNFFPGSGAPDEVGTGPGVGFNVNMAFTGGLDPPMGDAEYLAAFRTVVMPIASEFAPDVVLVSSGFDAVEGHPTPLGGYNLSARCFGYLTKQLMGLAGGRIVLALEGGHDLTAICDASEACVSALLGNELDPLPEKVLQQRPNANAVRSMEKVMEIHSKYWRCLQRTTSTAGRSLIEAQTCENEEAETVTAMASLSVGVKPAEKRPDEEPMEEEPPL
UniProt P36873: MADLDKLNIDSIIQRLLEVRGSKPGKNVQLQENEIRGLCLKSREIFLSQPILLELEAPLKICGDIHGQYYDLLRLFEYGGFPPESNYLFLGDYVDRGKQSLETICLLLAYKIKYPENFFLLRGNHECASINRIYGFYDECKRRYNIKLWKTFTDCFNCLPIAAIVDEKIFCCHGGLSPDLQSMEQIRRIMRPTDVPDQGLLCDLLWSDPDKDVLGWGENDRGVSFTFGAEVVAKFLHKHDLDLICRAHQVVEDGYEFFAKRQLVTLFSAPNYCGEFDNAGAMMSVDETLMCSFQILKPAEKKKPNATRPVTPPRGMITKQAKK
UniProt P62136: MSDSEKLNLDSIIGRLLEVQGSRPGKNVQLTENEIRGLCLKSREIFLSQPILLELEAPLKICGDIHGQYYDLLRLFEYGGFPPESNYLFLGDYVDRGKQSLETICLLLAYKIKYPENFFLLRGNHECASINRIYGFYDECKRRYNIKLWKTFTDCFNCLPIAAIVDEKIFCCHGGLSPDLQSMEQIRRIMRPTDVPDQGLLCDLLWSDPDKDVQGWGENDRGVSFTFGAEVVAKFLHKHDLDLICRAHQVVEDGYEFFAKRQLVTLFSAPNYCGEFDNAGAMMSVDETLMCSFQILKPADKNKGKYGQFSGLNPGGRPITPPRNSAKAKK

Results are given in words; binding and its absence hold for the method and conditions named. In cells and extracts the contact can be indirect. Some entries that bind do so weakly or less than the wild type.

“HA-PP1γ (Protein phosphatase 1 catalytic subunit gamma) (from UniProt P36873 1-323) (enzyme)”: in the assay with Flag-HDAC4 (human), the binding result is reported as “binds”. Regarding “HA-PP1α (Protein phosphatase 1 catalytic subunit alpha) (from UniProt P62136 1-330) (enzyme)”, the binding result in the assay with Flag-HDAC4 (human) is reported as “binds”.

B1: endogenous GSDMD in THP-1 cells (protein, UniProt P57764 1-484)
chain: MGSAFERVVRRVVQELDHGGEFIPVTSLQSSTGFQPYCLVVRKPSSSWFWKPRYKCVNLSIKDILEPDAAEPDVQRGRSFHFYDAMDGQIQGSVELAAPGQAKIAGGAAVSDSSSTSMNVYSLSVDPNTWQTLLHERHLRQPEHKVLQQLRSRGDNVYVVTEVLQTQKEVEVTRTHKREGSGRFSLPGATCLQGEGQGHLSQKKTVTIPSGSTLAFRVAQLVIDSDLDVLLFPDKKQRTFQPPATGHKRSTSEGAWPQLPSGLSMMRCLHNFLTDGVPAEGAFTEDFQGLRAEVETISKELELLDRELCQLLLEGLEGVLRDQLALRALEEALEQGQSLGPVEPLDGPAGAVLECLVLSSGMLVPELAIPVVYLLGALTMLSETQHKLLAEALESQTLLGPLELVGSLLEQSAPWQERSTMSLPPGLLGNSWGEGAPAWVLLDECGLELGEDTPHVCWEPQAQGRMCALYASLALLSGLSQEPH
For B1, in assay [1], the binding result was “binds”.

Values taken from PMC10850491.
